Test results as given in patent US20240075093A1, “COMPOSITIONS AND METHODS OF TREATING A PI3K MEDIATED DISEASE” (VIRGINIA TECH INTELLECTUAL PROPERTIES, INC., priority 2020, published 2024).
These are yes or no findings as the source states them, for the method shown. Binding seen in cells or lysates may run through a third protein. Some results given as binding are weak or reduced against the parent protein; the word gives no strength.

Protein sequences, listed by entry. Tags and fused reporters are not part of them. Residues count along the entry.
UniProt P42338: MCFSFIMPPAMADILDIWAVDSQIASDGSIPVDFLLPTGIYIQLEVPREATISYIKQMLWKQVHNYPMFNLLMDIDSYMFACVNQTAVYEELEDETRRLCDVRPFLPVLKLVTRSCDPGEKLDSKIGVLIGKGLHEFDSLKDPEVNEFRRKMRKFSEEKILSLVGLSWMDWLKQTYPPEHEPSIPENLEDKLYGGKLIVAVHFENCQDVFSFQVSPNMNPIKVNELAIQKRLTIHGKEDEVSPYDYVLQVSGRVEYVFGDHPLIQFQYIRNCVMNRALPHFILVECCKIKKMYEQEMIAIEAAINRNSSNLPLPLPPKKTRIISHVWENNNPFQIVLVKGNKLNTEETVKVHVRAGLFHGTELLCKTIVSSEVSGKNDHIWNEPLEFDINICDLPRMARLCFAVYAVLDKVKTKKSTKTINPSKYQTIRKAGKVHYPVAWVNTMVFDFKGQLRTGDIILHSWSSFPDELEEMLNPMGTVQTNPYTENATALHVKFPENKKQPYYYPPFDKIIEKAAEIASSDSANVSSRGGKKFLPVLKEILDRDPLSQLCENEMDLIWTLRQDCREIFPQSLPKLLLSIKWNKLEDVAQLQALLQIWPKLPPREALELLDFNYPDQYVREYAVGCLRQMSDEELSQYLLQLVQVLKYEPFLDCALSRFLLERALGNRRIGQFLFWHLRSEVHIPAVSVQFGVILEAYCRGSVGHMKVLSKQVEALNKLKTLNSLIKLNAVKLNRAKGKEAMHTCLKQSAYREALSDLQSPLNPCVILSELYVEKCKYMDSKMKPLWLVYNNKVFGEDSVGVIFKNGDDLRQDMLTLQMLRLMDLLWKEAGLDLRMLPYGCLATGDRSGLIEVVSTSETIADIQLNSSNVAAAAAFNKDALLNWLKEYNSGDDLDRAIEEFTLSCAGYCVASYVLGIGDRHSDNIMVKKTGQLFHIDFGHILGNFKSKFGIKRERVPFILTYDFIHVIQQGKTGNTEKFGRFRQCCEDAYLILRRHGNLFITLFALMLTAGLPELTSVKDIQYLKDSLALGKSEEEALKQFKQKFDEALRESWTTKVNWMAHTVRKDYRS
UniProt P17302, residues 2-382: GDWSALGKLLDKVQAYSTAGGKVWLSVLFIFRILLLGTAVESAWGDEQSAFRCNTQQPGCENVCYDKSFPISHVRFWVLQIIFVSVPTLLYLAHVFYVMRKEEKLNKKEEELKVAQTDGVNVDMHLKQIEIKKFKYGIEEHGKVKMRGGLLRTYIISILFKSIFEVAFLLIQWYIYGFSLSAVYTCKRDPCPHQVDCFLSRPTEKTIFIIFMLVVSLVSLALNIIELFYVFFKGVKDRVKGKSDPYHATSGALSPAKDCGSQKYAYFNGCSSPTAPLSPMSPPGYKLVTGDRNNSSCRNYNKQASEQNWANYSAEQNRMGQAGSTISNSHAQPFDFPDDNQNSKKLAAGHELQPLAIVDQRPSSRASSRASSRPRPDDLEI

Assays:
[1] = molecular target: p110β (PI3K catalytic subunit β, endogenous, in U87MG cell lysate) (human) (UniProt P42338); test: co-immunoprecipitation from U87MG cell lysate, immunoblot
[2] = molecular target: p110β (PI3K catalytic subunit β, endogenous, in U87MG cell lysate) (human) (UniProt P42338); test: co-immunoprecipitation of Cx43 and p110β in U87MG cells (FIG. 33F legend)

- binding [1]: binds
- binding [2]: binds
Substance: connexin 43 (endogenous, in U87MG cell lysate) (from UniProt P17302 2-382)
